{"source": "PubChem BioAssay AID1159578 | Peter MacCallum Cancer Centre | 2015", "assay": "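Genome-wide hunt for genes controlling movement of lymphatic endothelial cells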 (primary screen)", "cells": "human lymphatic endothelial cells", "reagent": "siRNA pool against human genes, 40 nM", "duration": "48 h after transfection", "measured": "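Cells stained with dye and imaged after a scratch; covered wound area and nuclei counted, duplicates averaged, migration set against mock wells and turned into a robust z-score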", "direction": "migration robust z-score: higher = faster migration into the scratch; nuclei per well: higher = more cells in the well", "hit rule": "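Pools averaging fewer than 3300 nuclei are never called; remaining pools count as changed when migration robust z lies outside -2 to 2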", "meaning of the calls": "active = migration changed; inactive = no migration change, or too few cells", "note": "Shown is a random part of about 18,000 reagents tested. Over the whole deposit, about 1,030 (5.7%) were called active. 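Inactive calls also include pools with fewer than 3300 nuclei, whose migration was not assessed.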 Raw values are not corrected between plates. Unmarked entries are inactive. Not all columns of the deposit are shown."}
The first 2 records, ahead of the listing:
{"gene knocked down": "HTR2A", "migration robust z-score": 0.83, "nuclei per well, duplicate mean": 4804}
{"gene knocked down": "PRPF3", "migration robust z-score": -1.62, "nuclei per well, duplicate mean": 2876}

The listing, repeating the preview:
{"gene knocked down": "HTR2A", "migration robust z-score": 0.83, "nuclei per well, duplicate mean": 4804}
{"gene knocked down": "PRPF3", "migration robust z-score": -1.62, "nuclei per well, duplicate mean": 2876}
{"gene knocked down": "FZD10", "migration robust z-score": -0.5, "nuclei per well, duplicate mean": 4606}
{"gene knocked down": "GGA1", "migration robust z-score": 0, "nuclei per well, duplicate mean": 5934}
{"gene knocked down": "MTNAP1", "migration robust z-score": 0.04, "nuclei per well, duplicate mean": 6324}
{"gene knocked down": "NCAPH", "migration robust z-score": 0.68, "nuclei per well, duplicate mean": 5222}
{"gene knocked down": "TMCC1", "migration robust z-score": 0.92, "nuclei per well, duplicate mean": 5074}
{"gene knocked down": "TLE5", "migration robust z-score": 0.02, "nuclei per well, duplicate mean": 6190}
{"gene knocked down": "ALPI", "migration robust z-score": -0.52, "nuclei per well, duplicate mean": 4145}
{"gene knocked down": "CSNK1G1", "migration robust z-score": 0.86, "nuclei per well, duplicate mean": 5798}
{"gene knocked down": "RCOR2", "migration robust z-score": 0.5, "nuclei per well, duplicate mean": 5824}
{"gene knocked down": "DST", "migration robust z-score": 0.22, "nuclei per well, duplicate mean": 5679}
